Article PMC8479045
No constants are given. Whether binding was seen depends on the method and setting. For part of these data: In cells and extracts the contact can be indirect. Some results given as binding are weak or reduced against the parent protein; the word gives no strength.

T1: TSEN15 co-expressed in HEK293 cells (bait of the pull-down of Fig. 4a) (human) (UniProt Q8WW01)
T1 sequence: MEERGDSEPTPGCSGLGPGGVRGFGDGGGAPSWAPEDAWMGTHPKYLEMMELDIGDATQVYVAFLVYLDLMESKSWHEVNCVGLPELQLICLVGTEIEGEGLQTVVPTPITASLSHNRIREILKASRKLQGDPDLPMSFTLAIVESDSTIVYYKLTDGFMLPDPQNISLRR

T2: tRNA splicing endonuclease subunit TSEN15 (human) (UniProt Q8WW01)
T2 sequence: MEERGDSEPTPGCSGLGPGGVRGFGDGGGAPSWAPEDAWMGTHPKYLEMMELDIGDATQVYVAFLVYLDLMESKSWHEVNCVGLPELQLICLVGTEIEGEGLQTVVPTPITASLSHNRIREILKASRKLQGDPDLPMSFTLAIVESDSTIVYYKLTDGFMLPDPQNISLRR


molecular target: T1, TSEN15 co-expressed in HEK293 cells (bait of the pull-down of Fig. 4a) (human); test: pull-down; wt and mutant TSEN complexes co-expressed in HEK293 cells; pull-down via TSEN15; immunoblot

binding | Binder
binds | TSEN34 co-expressed in HEK293 cells (protein, UniProt Q9BSV6 1-310) MLVVEVANGRSLVWGAEAVQALRERLGVGGRTVGALPRGPRQNSRLGLPLLLMPEEARLLAEIGAVTLVSAPRPDSRHHSLALTSFKRQQEESFQEQSALAAEARETRRQELLEKITEGQAAKKQKLEQASGASSSQEAGSSQAAKEDETSDGQASGEQEEAGPSSSQAGPSNGVAPLPRSALLVQLATARPRPVKARPLDWRVQSKDWPHAGRPAHELRYSIYRDLWERGFFLSAAGKFGGDFLVYPGDPLRFHAHYIAQCWAPEDTIPLQDLVAAGRLGTSVRKTLLLCSPQPDGKVVYTSLQWASLQ
binds | TSEN34 R58W co-expressed in HEK293 cells (protein, UniProt Q9BSV6 1-310) MLVVEVANGRSLVWGAEAVQALRERLGVGGRTVGALPRGPRQNSRLGLPLLLMPEEAWLLAEIGAVTLVSAPRPDSRHHSLALTSFKRQQEESFQEQSALAAEARETRRQELLEKITEGQAAKKQKLEQASGASSSQEAGSSQAAKEDETSDGQASGEQEEAGPSSSQAGPSNGVAPLPRSALLVQLATARPRPVKARPLDWRVQSKDWPHAGRPAHELRYSIYRDLWERGFFLSAAGKFGGDFLVYPGDPLRFHAHYIAQCWAPEDTIPLQDLVAAGRLGTSVRKTLLLCSPQPDGKVVYTSLQWASLQ
binds | TSEN2 Y309C co-expressed in HEK293 cells (protein, UniProt Q8NCE0 1-465) MAEAVFHAPKRKRRVYETYESPLPIPFGQDHGPLKEFKIFRAEMINNNVIVRNAEDIEQLYGKGYFGKGILSRSRPSFTISDPKLVAKWKDMKTNMPIITSKRYQHSVEWAAELMRRQGQDESTVRRILKDYTKPLEHPPVKRNEEAQVHDKLNSGMVSNMEGTAGGERPSVVNGDSGKSGGVGDPREPLGCLQEGSGCHPTTESFEKSVREDASPLPHVCCCKQDALILQRGLHHEDGSQHIGLLHPGDRGPDHEYVLVEEAECAMSEREAAPNEELVQRNRLICRRNPYRIFEYLQLSLEEAFFLVCALGCLSIYYEKEPLTIVKLWKAFTVVQPTFRTTYMAYHYFRSKGWVPKVGLKYGTDLLLYRKGPPFYHASYSVIIELVDDHFEGSLRRPLSWKSLAALSRVSVNVSKELMLCYLIKPSTMTDKEMESPECMKRIKVQEVILSRWVSSRERSDQDDL
binds | TSEN2 co-expressed in HEK293 cells (protein, UniProt Q8NCE0 1-465) MAEAVFHAPKRKRRVYETYESPLPIPFGQDHGPLKEFKIFRAEMINNNVIVRNAEDIEQLYGKGYFGKGILSRSRPSFTISDPKLVAKWKDMKTNMPIITSKRYQHSVEWAAELMRRQGQDESTVRRILKDYTKPLEHPPVKRNEEAQVHDKLNSGMVSNMEGTAGGERPSVVNGDSGKSGGVGDPREPLGCLQEGSGCHPTTESFEKSVREDASPLPHVCCCKQDALILQRGLHHEDGSQHIGLLHPGDRGPDHEYVLVEEAECAMSEREAAPNEELVQRNRLICRRNPYRIFEYLQLSLEEAFFLVYALGCLSIYYEKEPLTIVKLWKAFTVVQPTFRTTYMAYHYFRSKGWVPKVGLKYGTDLLLYRKGPPFYHASYSVIIELVDDHFEGSLRRPLSWKSLAALSRVSVNVSKELMLCYLIKPSTMTDKEMESPECMKRIKVQEVILSRWVSSRERSDQDDL

molecular target: T2, tRNA splicing endonuclease subunit TSEN15 (human); test: co-expression and co-purification; combinatorial co-expression in Sf21 cells; Ni-NTA, heparin (left out for TSEN15–34), TEV cleavage, SEC on Superdex 200 Increase in 50 mM HEPES-NaOH pH 7.4, 400 mM NaCl; SDS-PAGE of purified complexes

binding | Binder
binds | TSEN34 R58W from insect cells (protein, UniProt Q9BSV6 1-310) MLVVEVANGRSLVWGAEAVQALRERLGVGGRTVGALPRGPRQNSRLGLPLLLMPEEAWLLAEIGAVTLVSAPRPDSRHHSLALTSFKRQQEESFQEQSALAAEARETRRQELLEKITEGQAAKKQKLEQASGASSSQEAGSSQAAKEDETSDGQASGEQEEAGPSSSQAGPSNGVAPLPRSALLVQLATARPRPVKARPLDWRVQSKDWPHAGRPAHELRYSIYRDLWERGFFLSAAGKFGGDFLVYPGDPLRFHAHYIAQCWAPEDTIPLQDLVAAGRLGTSVRKTLLLCSPQPDGKVVYTSLQWASLQ
binds | TSEN54 S93P from insect cells (protein, UniProt Q7Z6J9 1-526) MEPEPEPAAVEVPAGRVLSARELFAARSRSQKLPQRSHGPKDFLPDGSAAQAERLRRCREELWQLLAEQRVERLGSLVAAEWRPEEGFVELKPPAGKFWQTMGFSEQGRQRLHPEEALYLLECGSIHLFHQDLPLSIQEAYQLLLTDHTVTFLQYQVFSHLKRLGYVVRRFQPSSVLSPYERQLNLDASVQHLEDGDGKRKRSSSSPRSINKKAKALDNSLQPKSLAASSPPPCSQPSQCPEEKPQESSPMKGPGGPFQLLGSLGPSPGPAREGVGCSWESGRAENGVTGAGKRRWNFEQISFPNMASDSRHTLLRAPAPELLPANVAGRETDAESWCQKLNQRKEKLSRREREHHAEAAQFQEDVNADPEVQRCSSWREYKELLQRRQVQRSQRRAPHLWGQPVTPLLSPGQASSPAVVLQHISVLQTTHLPDGGARLLEKSGGLEIIFDVYQADAVATFRKNNPGKPYARMCISGFDEPVPDLCSLKRLSYQSGDVPLIFALVDHGDISFYSFRDFTLPQDVGH
binds | TSEN54 A307S from insect cells (protein, UniProt Q7Z6J9 1-526) MEPEPEPAAVEVPAGRVLSARELFAARSRSQKLPQRSHGPKDFLPDGSAAQAERLRRCREELWQLLAEQRVERLGSLVAAEWRPEEGFVELKSPAGKFWQTMGFSEQGRQRLHPEEALYLLECGSIHLFHQDLPLSIQEAYQLLLTDHTVTFLQYQVFSHLKRLGYVVRRFQPSSVLSPYERQLNLDASVQHLEDGDGKRKRSSSSPRSINKKAKALDNSLQPKSLAASSPPPCSQPSQCPEEKPQESSPMKGPGGPFQLLGSLGPSPGPAREGVGCSWESGRAENGVTGAGKRRWNFEQISFPNMSSDSRHTLLRAPAPELLPANVAGRETDAESWCQKLNQRKEKLSRREREHHAEAAQFQEDVNADPEVQRCSSWREYKELLQRRQVQRSQRRAPHLWGQPVTPLLSPGQASSPAVVLQHISVLQTTHLPDGGARLLEKSGGLEIIFDVYQADAVATFRKNNPGKPYARMCISGFDEPVPDLCSLKRLSYQSGDVPLIFALVDHGDISFYSFRDFTLPQDVGH

The remaining lines, values behind:

Binder | binding
TSEN2 Y309C from insect cells (protein, UniProt Q8NCE0 1-465) MAEAVFHAPKRKRRVYETYESPLPIPFGQDHGPLKEFKIFRAEMINNNVIVRNAEDIEQLYGKGYFGKGILSRSRPSFTISDPKLVAKWKDMKTNMPIITSKRYQHSVEWAAELMRRQGQDESTVRRILKDYTKPLEHPPVKRNEEAQVHDKLNSGMVSNMEGTAGGERPSVVNGDSGKSGGVGDPREPLGCLQEGSGCHPTTESFEKSVREDASPLPHVCCCKQDALILQRGLHHEDGSQHIGLLHPGDRGPDHEYVLVEEAECAMSEREAAPNEELVQRNRLICRRNPYRIFEYLQLSLEEAFFLVCALGCLSIYYEKEPLTIVKLWKAFTVVQPTFRTTYMAYHYFRSKGWVPKVGLKYGTDLLLYRKGPPFYHASYSVIIELVDDHFEGSLRRPLSWKSLAALSRVSVNVSKELMLCYLIKPSTMTDKEMESPECMKRIKVQEVILSRWVSSRERSDQDDL | binds
tRNA splicing endonuclease subunit TSEN2 (protein, UniProt Q8NCE0 1-465) MAEAVFHAPKRKRRVYETYESPLPIPFGQDHGPLKEFKIFRAEMINNNVIVRNAEDIEQLYGKGYFGKGILSRSRPSFTISDPKLVAKWKDMKTNMPIITSKRYQHSVEWAAELMRRQGQDESTVRRILKDYTKPLEHPPVKRNEEAQVHDKLNSGMVSNMEGTAGGERPSVVNGDSGKSGGVGDPREPLGCLQEGSGCHPTTESFEKSVREDASPLPHVCCCKQDALILQRGLHHEDGSQHIGLLHPGDRGPDHEYVLVEEAECAMSEREAAPNEELVQRNRLICRRNPYRIFEYLQLSLEEAFFLVYALGCLSIYYEKEPLTIVKLWKAFTVVQPTFRTTYMAYHYFRSKGWVPKVGLKYGTDLLLYRKGPPFYHASYSVIIELVDDHFEGSLRRPLSWKSLAALSRVSVNVSKELMLCYLIKPSTMTDKEMESPECMKRIKVQEVILSRWVSSRERSDQDDL | binds
